Measurements taken from PubChem BioAssay AID248 (DTP/NCI, 2004).
The list does not hold the whole screen: it gathers tests that were run many times, whatever their T/C, doses with no T/C, and many T/C values between a quarter and a half above the control. Other doses and runs of a compound stand elsewhere. T/C gives the treated animals as a percentage of the vehicle group. Some entries give survivors of the animals treated and no T/C: the source holds a T/C of zero for them, seemingly a mark for toxic or unscored doses. Some survivor counts are full or nearly so, which does not show that the dose was tolerated: the source hardly ever lists a survival T/C far under the control, and the zero likely stands for such cases as well. Survivors were counted at the toxicity check, usually on the fifth day, unless a day is given; later deaths do not show. Schedules are NCI's codes, taken here to give the interval after Q, in days (D) or hours (H), and the number of doses after X. Some entries were tested several times; their values stand side by side, smallest first. Where survival is the endpoint, this PubChem deposit counts one and a half times the control or more as active, and values a quarter to a half above the control carry no call in these data; other NCI protocols may use other cut-offs.

System: L1210 leukemia ip in BDF1 mice, survival T/C
Assay: NCI In Vivo Anticancer Drug Screen. Data for tumor model L1210 Leukemia (intraperitoneal) in B6D2F1 (BDF1) mice
Conditions: T/C endpoint: mean survival time, higher T/C = longer survival
[1] = dose: 200.0 mg/kg/injection, schedule: Q04DX003 (ip), vehicle: saline with Tween-80
[2] = dose: 200.0 mg/kg/injection, schedule: Q04DX003 (ip), vehicle: saline
[3] = dose: 400.0 mg/kg/injection, schedule: Q04DX003 (ip), vehicle: saline

**Q.** Which T/C [1] does the source give for `O=C(/C=C/C=C/c1ccccc1)c1ccc(Cl)cc1` here?
**A.** 125 % of control

**Q.** How did the survivor count (dose: 150.0 mg/kg/injection, schedule: Q01DX001 (ip), vehicle: other) turn out when `CCN(CC)CCN1C(=O)C(C)C=C(C)C=C1C` (configuration not stated) was run?
**A.** 3 of 6

**Q.** And the survivor count (dose: 300.0 mg/kg/injection, schedule: Q01DX001 (ip), vehicle: other)?
**A.** 0 of 6

**Q.** Which results are given for `Oc1c(Cl)cc(N=Cc2ccc(N(CCCCl)CCCCl)cc2)cc1Cl`?
**A.** survivor count (dose: 100.0 mg/kg/injection, schedule: Q04DX003 (ip), vehicle: Klucel (hydroxypropylcellulose) (HPC)): 6 of 6; survivor count (dose: 200.0 mg/kg/injection, schedule: Q04DX003 (ip), vehicle: Klucel (hydroxypropylcellulose) (HPC)): 6 of 6; survivor count (dose: 400.0 mg/kg/injection, schedule: Q04DX003 (ip), vehicle: Klucel (hydroxypropylcellulose) (HPC)): 6 of 6

**Q.** `CNc1c([N+](=O)[O-])ncn1C` was tested. Which survivor count [2] did it give?
**A.** 2 of 6

**Q.** And the survivor count [3]?
**A.** 0 of 6

**Q.** How did the survivor count (dose: 100.0 mg/kg/injection, schedule: Q01DX001 (ip), vehicle: carboxymethylcellulose (CMC)) turn out when `O=c1[nH]c(=O)n(CCCc2ccccc2)cc1-c1ccccc1` was run?
**A.** 4 of 4

**Q.** And the survivor count (dose: 200.0 mg/kg/injection, schedule: Q01DX001 (ip), vehicle: carboxymethylcellulose (CMC))?
**A.** 4 of 4

**Q.** How did the T/C (dose: 10.0 mg/kg/injection, schedule: Q01DX001 (ip), vehicle: carboxymethylcellulose (CMC)) turn out when `O=NN(CCF)C(=O)Nc1c[nH]c(=O)[nH]c1=O` was run?
**A.** 136 % of control

**Q.** What about the survivor count (dose: 30.0 mg/kg/injection, schedule: Q01DX001 (ip), vehicle: carboxymethylcellulose (CMC)) of the same molecule?
**A.** 1 of 6

**Q.** And the survivor count (dose: 40.0 mg/kg/injection, schedule: Q01DX001 (ip), vehicle: carboxymethylcellulose (CMC))?
**A.** 0 of 6

**Q.** And the survivor count (dose: 60.0 mg/kg/injection, schedule: Q01DX001 (ip), vehicle: carboxymethylcellulose (CMC))?
**A.** 0 of 6

**Q.** What about the survivor count (dose: 93.0 mg/kg/injection, schedule: Q01DX001 (ip), vehicle: carboxymethylcellulose (CMC)) of the same molecule?
**A.** 0 of 6

**Q.** What about the survivor count (dose: 187.0 mg/kg/injection, schedule: Q01DX001 (ip), vehicle: carboxymethylcellulose (CMC)) of the same molecule?
**A.** 0 of 6

**Q.** What about the survivor count (dose: 250.0 mg/kg/injection, schedule: Q01DX001 (ip), vehicle: carboxymethylcellulose (CMC)) of the same molecule?
**A.** 0 of 6

**Q.** What about the survivor count (dose: 375.0 mg/kg/injection, schedule: Q01DX001 (ip), vehicle: carboxymethylcellulose (CMC)) of the same molecule?
**A.** 0 of 6

**Q.** And the survivor count (dose: 500.0 mg/kg/injection, schedule: Q01DX001 (ip), vehicle: carboxymethylcellulose (CMC))?
**A.** 0 of 6

**Q.** And the survivor count (dose: 750.0 mg/kg/injection, schedule: Q01DX001 (ip), vehicle: carboxymethylcellulose (CMC))?
**A.** 0 of 6

**Q.** How did the survivor count (dose: 25.0 mg/kg/injection, schedule: Q01DX009 (ip), vehicle: saline) turn out when `CCN(CCNS(C)(=O)=O)c1ccc(N)c(C)c1` was run?
**A.** 5 of 6

**Q.** And the survivor count (dose: 50.0 mg/kg/injection, schedule: Q01DX009 (ip), vehicle: saline)?
**A.** 0 of 6

**Q.** What about the survivor count (dose: 100.0 mg/kg/injection, schedule: Q04DX003 (ip), vehicle: saline) of the same molecule?
**A.** 0 of 6

**Q.** What about the survivor count [2] of the same molecule?
**A.** 0 of 6

**Q.** What about the survivor count [3] of the same molecule?
**A.** 0 of 6

**Q.** `CCNc1nnc(N=Nc2ccccc2)s1` was tested. Which survivor count (dose: 50.0 mg/kg/injection, schedule: Q01DX009 (ip), vehicle: saline with Tween-80) did it give?
**A.** 6 of 6

**Q.** And the survivor count (dose: 100.0 mg/kg/injection, schedule: Q01DX009 (ip), vehicle: saline with Tween-80)?
**A.** 6 of 6

**Q.** And the survivor count (dose: 200.0 mg/kg/injection, schedule: Q01DX009 (ip), vehicle: saline with Tween-80)?
**A.** 6 of 6

**Q.** How did the survivor count (dose: 400.0 mg/kg/injection, schedule: Q04DX002 (ip), vehicle: saline) turn out when `C=C1C(=O)OC2C1CCC(C)=C1C(=O)C=C(C)C12` (configuration not stated) was run?
**A.** 3 of 3

**Q.** For `CCOC(=O)COc1c(C(C)CC)cc([N+](=O)[O-])cc1[N+](=O)[O-]` (configuration not stated), which survivor count (dose: 200.0 mg/kg/injection, schedule: Q04DX002 (ip), vehicle: gum acacia) is on record?
**A.** 2 of 3

**Q.** What about the survivor count (dose: 400.0 mg/kg/injection, schedule: Q04DX002 (ip), vehicle: gum acacia) of the same molecule?
**A.** 2 of 3

**Q.** For `CC(=N/NC(=O)c1ccc[n+](C)c1)/C(C)=N\NC(=O)c1ccc[n+](C)c1`, which survivor count (dose: 100.0 mg/kg/injection, schedule: Q01DX001 (ip), vehicle: saline) is on record?
**A.** 1 of 3 and 2 of 6

**Q.** And the survivor count (dose: 200.0 mg/kg/injection, schedule: Q01DX001 (ip), vehicle: saline)?
**A.** 0 of 6

**Q.** And the survivor count (dose: 400.0 mg/kg/injection, schedule: Q01DX001 (ip), vehicle: saline)?
**A.** 0 of 6

**Q.** Which results are given for `N/C(=N\Cl)C(Cl)(Cl)Cl`?
**A.** survivor count (dose: 100.0 mg/kg/injection, schedule: Q04DX003 (ip), vehicle: saline with Tween-80): 5 of 6; survivor count [1]: 0 of 6; survivor count (dose: 400.0 mg/kg/injection, schedule: Q04DX003 (ip), vehicle: saline with Tween-80): 0 of 6
